Assay results taken from patent publication US20110003692A1, “HERBICIDALLY AND INSECTICIDALLY ACTIVE PHENYL-SUBSTITUTED PYRIDAZINONES” (BAYER CROPSCIENCE AG, priority 2008, published 2011).
Some of these results come from one statement about several compounds together. For some assays here: At least one structure is not confirmed: it was looked up by name or label, or the drawing left a doubt.

What was measured:
Type in all cases: in vivo
[1] = system: Fallopia convolvulus; assay: Herbicidal post-emergence activity against harmful plants; details: application rate 80 g/ha, scored visually after approximately 3 weeks
[2] = system: Matricaria inodora; assay: Herbicidal pre-emergence effect against harmful plants; details: application rate 320 g/ha, scored visually after 3 weeks
[3] = system: Abutilon theophrasti; assay: Herbicidal post-emergence activity against harmful plants; details: application rate 80 g/ha, scored visually after approximately 3 weeks
[4] = system: Stellaria media; assay: Herbicidal pre-emergence effect against harmful plants; details: application rate 320 g/ha, scored visually after 3 weeks
[5] = system: Amaranthus retroflexus; assay: as above; details: application rate 320 g/ha, scored visually after 3 weeks
[6] = system: Setaria viridis; assay: Herbicidal post-emergence activity against harmful plants; details: application rate 80 g/ha, scored visually after approximately 3 weeks
[7] = system: Fallopia convolvulus; assay: Herbicidal pre-emergence effect against harmful plants; details: application rate 320 g/ha, scored visually after 3 weeks
[8] = system: Viola tricolor; assay: as above; details: application rate 320 g/ha, scored visually after 3 weeks
[9] = system: Veronica persica; assay: as above; details: application rate 320 g/ha, scored visually after 3 weeks
[10] = system: green peach aphid (Myzus persicae); assay: Myzus test (MYZUPE spray treatment); details: application rate 500 g/ha, spray on Chinese cabbage discs

C#CCOc1c(C)nn(C)c(=O)c1-c1c(C)cc(Cl)cc1Cl [I-1-h-7, 4-(2,4-dichloro-6-methylphenyl)-2,6-dimethyl-5-propynyloxy-3(2H)-pyridazinone]
at least 80%: herbicidal activity in percent against Fallopia convolvulus [1] | herbicidal activity in percent against Matricaria inodora [2] | herbicidal activity in percent against Abutilon theophrasti [3] | herbicidal activity in percent against Stellaria media [4] | herbicidal activity in percent against Amaranthus retroflexus [5] | herbicidal activity in percent against Setaria viridis [6] | herbicidal activity in percent against Fallopia convolvulus [7] | herbicidal activity in percent against Viola tricolor [8] | herbicidal activity in percent against Veronica persica [9]

Cn1ncc(O)c(-c2ccc(Cl)c(Cl)c2)c1=O [I-1-a-4]
at least 80%: effect in % (aphids killed) [10]

CC(C)(C)n1ncc(O)c(-c2cc(C(F)(F)F)cc(C(F)(F)F)c2)c1=O [I-1-a-8]
at least 80%: effect in % (aphids killed) [10]
